Experiment [1] has as its target T1, HA-tagged palmitoylation-deficient R7BP C252S/C253S double mutant (human) (UniProt Q6MZT1).
T1 sequence: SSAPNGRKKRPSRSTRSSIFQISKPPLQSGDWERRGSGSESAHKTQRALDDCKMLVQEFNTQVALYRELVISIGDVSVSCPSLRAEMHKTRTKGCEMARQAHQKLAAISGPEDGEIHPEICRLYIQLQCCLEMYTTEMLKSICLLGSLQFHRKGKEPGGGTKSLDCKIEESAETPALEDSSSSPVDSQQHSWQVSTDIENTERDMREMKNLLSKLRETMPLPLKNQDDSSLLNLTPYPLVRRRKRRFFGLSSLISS
Put plainly: co-IP; anti-HA immunoprecipitation from detergent lysate of transfected PC12 cells; buffer A (250 mM NaCl, 50 mM Tris pH 8.0, 5 mM EDTA, 0.5 % NP-40), overnight at 4°C, protein G-Sepharose; immunoblot with anti-HA, anti-RGS7 and anti-Gβ5 (ATDG).

Experiment [2] addresses T2, HA-tagged wild-type human R7-binding protein (R7BP) (human) (UniProt Q6MZT1).
T2 sequence: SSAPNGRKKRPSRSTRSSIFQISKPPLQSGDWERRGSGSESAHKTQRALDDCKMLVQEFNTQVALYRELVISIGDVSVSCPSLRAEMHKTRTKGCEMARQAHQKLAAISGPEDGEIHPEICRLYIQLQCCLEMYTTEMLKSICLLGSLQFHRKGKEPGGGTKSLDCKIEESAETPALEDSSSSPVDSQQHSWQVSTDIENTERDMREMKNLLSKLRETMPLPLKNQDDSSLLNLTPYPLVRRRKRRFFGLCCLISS
The description is as above.

These are yes or no findings as the source states them, for the method shown. In cells and extracts the contact can be indirect. Some results given as binding are weak or reduced against the parent protein; the word gives no strength. Sequences can lack the tags named with a protein.

This note sets out measurements from article PMC2048962.

B1: endogenous Gβ5/RGS7 protein complex of PC12 cells (complex, UniProt P62882 1-353; P49803 1-477)
chain 1: MATDGLHENETLASLKSEAESLKGKLEEERAKLHDVELHQVAERVEALGQFVMKTRRTLKGHGNKVLCMDWCKDKRRIVSSSQDGKVIVWDSFTTNKEHAVTMPCTWVMACAYAPSGCAIACGGLDNKCSVYPLTFDKNENMAAKKKSVAMHTNYLSACSFTNSDMQILTASGDGTCALWDVESGQLLQSFHGHGADVLCLDLAPSETGNTFVSGGCDKKAMVWDMRSGQCVQAFETHESDVNSVRYYPSGDAFASGSDDATCRLYDLRADREVAIYSKESIIFGASSVDFSLSGRLLFAGYNDYTINVWDVLKGSRVSILFGHENRVSTLRVSPDGTAFCSGSWDHTLRVWA
chain 2: MAQGNNYGQTSNGVAEESPNMLVYRKMEDVIARMQDEKNGIPIRTVKSFLSKIPSVFSGSDIVQWLIKNLTIEDPVEALHLGTLMAAHGYFFPISDHVLTLKDDGTFYRFQTPYFWPSNCWEPENTDYAVYLCKRTMQNKARLELADYEAESLARLQRAFARKWEFIFMQAEAQAKVDKKRDKIERKILDSQERAFWDVHRPVPGCVNTTEVDIKKSSRMRNPHKTRKSVYGLQNDIRSHSPTHTPTPETKPPTEDELHRQIKYWQIQLDRHRLKMSKVADSLLSYTEQYVEYDPFLVPPDPSNPWLSDDTTFWELEASKEPSQQRVKRWGFGMDEALKDPVGREQFLKFLESEFSSENLRFWLAVEDLKKRPIREVPSRVQEIWQEFLAPGAPSAINLDSKSYDKTTQNVKEPGRYTFEDAQEHIYKLMKSDSYPRFIRSSAYQELLQAKRKGRNIPIFPCHKNCTPTLRASTNLL
Take B1: the binding entry in experiment [1] and in experiment [2] was “binds” throughout.
